Reference: PubChem BioAssay AID540276 (National Center for Advancing Translational Sciences (NCATS), 2011)
Out of some 300,000 compounds screened, about 5,400 (1.8%) were called active. The shares of active, inactive and inconclusive entries below differ from those in the screen. Calls follow the shape of the full dose curve; tested in HEK293 cells. Potencies beside an inconclusive call are fits to weak or partial responses and may not hold up.

Assay: qHTS for inhibitors of binding or entry into cells for Marburg Virus
Conditions: Marburg virus pseudotyped entry inhibition, cell reporter; activity change, negative = inhibition: at 37.8 µM (top of the series) unless noted
% is scaled to controls: 0 for no effect and ±100 for the full control effect; potency is read from the fitted curve at half-maximal effect.

SMILES	Potency	activity change, negative = inhibition
Cc1ccc(/C=N/NC(=O)c2ccco2)cc1	inconclusive: 3.55 µM [activator, partial curve, poor fit]	
Cc1ccc(NC(=S)N(CCCN2CCCC(C)C2)Cc2ccco2)cc1C (stereo not drawn)	inconclusive: 7.94 µM [inhibitor, partial curve, poor fit]	
COc1ccc(S(=O)(=O)N2CCOCC2)cc1NC(=O)CCNC(=O)c1ccc(Br)cc1	inconclusive: 6.31 µM [inhibitor, single point]	
COc1cccc(CC(=S)N2CCOCC2)c1	inconclusive: 15.8 µM [activator, single point]	
CCOc1ccc(C(=O)NCC2OCCc3ccccc32)cc1 (stereo not drawn)		inactive: 26.3%
Cn1c(=O)n(-c2ccc3c(c2)OCO3)c2nc(-c3ccc(Cl)cc3)nc(C(N)=O)c21	inconclusive: 0.891 µM [activator, full curve, poor fit]	
O=C(C1=COCCO1)N1CCN(S(=O)(=O)c2cccc(Cl)c2Cl)CC1	inconclusive: 6.51 µM [activator, single point]	
O=C(CCC1N=C2c3ccccc3N=C(SCc3ccccc3Cl)N2C1=O)NCCc1ccccc1 (stereo not drawn)		inactive: 22% [at 46.1 µM]
Cc1ccc(-c2noc(CCCc3ccccc3)n2)cc1		inactive: 5.22%
CC(C)Oc1ccc(-c2cc(C(=O)NCCN3CCOCC3)c3ccccc3n2)cc1		inactive: -4.63%
O=[N+]([O-])c1ccccc1Oc1cnc2ccccc2n1		inactive: -13.9% [at 46.1 µM]
Cc1nc(Nc2ccc(Cl)c(Cl)c2)sc1C(=O)Nc1ccccc1	inconclusive: 29.1 µM [inhibitor, partial curve, poor fit]	
Nc1nc(NCCCN2CCOCC2)nc(Nc2ccccc2F)c1[N+](=O)[O-]	inconclusive: 2.51 µM [inhibitor, partial curve, poor fit]	
COc1ccc(Br)cc1Cn1nnc(C(=O)Nc2ccc(C)cc2C)c1N	inconclusive: 7.08 µM [inhibitor, partial curve, poor fit]	
CCCCOc1ccc(C(=O)N2CC(=O)Nc3ccc(Br)cc3C2c2ccc(F)cc2)cc1 (stereo not drawn)	inconclusive: 35.5 µM [inhibitor, single point]	
CC(=O)COc1ccc2cc(-c3ccccc3)c(=O)oc2c1	inconclusive: 3.55 µM [activator, partial curve, poor fit]	
CCc1ccc2ncc(S(=O)(=O)c3ccc(Cl)cc3)c(N3CCN(CC)CC3)c2c1	inconclusive: 3.55 µM [inhibitor, single point]	
COc1ccccc1NC(=S)NN=C(C)c1ccccn1	inconclusive: 0.0891 µM [inhibitor, full curve, poor fit]	
O=C(Nc1cccc2c1CCCC2)c1cc([N+](=O)[O-])ccc1Cl		inactive: -24%
COc1ccc(N(CC(=O)Nc2ccc3c(c2)OCCO3)S(C)(=O)=O)c(OC)c1	inactive	
COCCNC(=O)/C(C#N)=C/c1cccc(OCc2ccccc2)c1	inconclusive: 8.91 µM [inhibitor, partial curve, poor fit]	
O=C(CNc1ccccc1)N/N=C/c1cc([N+](=O)[O-])ccc1N1CCCC1	inconclusive: 1.12 µM [inhibitor, full curve, poor fit]	

Whole records, quoted from the list:
Cc1ccc(NC(=S)N(CCCN2CCCC(C)C2)Cc2ccco2)cc1C (stereo not drawn) is listed with Potency: inconclusive: 7.94 µM [inhibitor, partial curve, poor fit]
Nc1nc(NCCCN2CCOCC2)nc(Nc2ccccc2F)c1[N+](=O)[O-] is listed with Potency: inconclusive: 2.51 µM [inhibitor, partial curve, poor fit]
CCCCOc1ccc(C(=O)N2CC(=O)Nc3ccc(Br)cc3C2c2ccc(F)cc2)cc1 (stereo not drawn) is listed with Potency: inconclusive: 35.5 µM [inhibitor, single point]

(next part)

SMILES	Potency	activity change, negative = inhibition
CCOC(=O)C1CCN(C(=O)c2sc3nc(-c4ccc(F)cc4)cn3c2C)CC1	inconclusive: 31.6 µM [inhibitor, single point]	
CCCC(=O)Nc1cc(S(=O)(=O)N(CC)CC)ccc1Cl	inconclusive: 15.8 µM [activator, single point]	
Oc1[nH]c2ccccc2c1N=Nc1c(F)c(F)c(F)c(F)c1F	inconclusive: 0.112 µM [activator, full curve, poor fit]	
Clc1ccc(-n2nnnc2CN2CCCCC2)cc1Cl	inconclusive: 0.73 µM [inhibitor, partial curve, poor fit]	
CN(Cc1cccs1)C(=O)CN1C(=O)c2ccccc2S1(=O)=O	inconclusive: 8.91 µM [activator, partial curve, poor fit]	
CCOC(=O)N1CCN(C(=O)CSc2ccc(-c3ccc(OC)c(OC)c3)nn2)CC1	inconclusive: 35.5 µM [inhibitor, single point]	
Cc1cc(N2CCOCC2)nc2ccc(NC(=O)CCC(=O)N3CCN(c4ccccc4F)CC3)cc12	inconclusive: 35.5 µM [inhibitor, single point]	
CCCc1ccc(OCc2ccc(C(=O)OC)o2)c(OC)c1	inconclusive: 4.11 µM [activator, single point]	
COc1ccccc1N(C)S(=O)(=O)c1ccc(C(=O)O)cc1		inactive: 19.4% [at 46.1 µM]
Cn1nnnc1SCc1nc2ccccc2[nH]1	inconclusive: 5.62 µM [activator, full curve]	
O=C(CSc1nnc(-c2ccc(O)cc2)n1Cc1ccco1)c1cccs1		inactive: -8.24%
Cc1ccc2nc(-c3ccc(Cl)c(NC(=O)c4ccc5c(c4)OCCO5)c3)oc2c1	inconclusive: 4.47 µM [activator, full curve]	
O=C(CSc1nc2ccccc2[nH]1)NCC1CCCO1 (stereo not drawn)	inconclusive: 31.6 µM [activator, single point]	
CCCCOc1ccc(C(=O)Nc2ccc(S(=O)(=O)Nc3nc(C)cc(C)n3)cc2)cc1	inconclusive: 31.6 µM [inhibitor, partial curve, poor fit]	
O=C(NC1(O)C(=O)c2ccccc2C1=O)c1ccc(C(F)(F)F)cc1		inactive: 0.323%
COC(=O)/C=C/c1oc2ccccc2c1C	inconclusive: 35.5 µM [inhibitor, single point]	
COc1ccc(-n2cnc3c(sc4nc(N5CCOCC5)c5c(c43)CCCC5)c2=O)cc1		inactive: -24.7%
COCCn1c(SCC(=O)Nc2ccccc2)nnc1-c1ccoc1C		inactive: 7.47% [at 46.1 µM]
Nn1c(SCC(=O)Nc2ccc(F)cc2)nnc1-c1cccnc1	inconclusive: 29.1 µM [activator, single point]	
Cc1ccc2nc(-c3ccc(NC(=O)COC(=O)c4ccco4)cc3)sc2c1	active: 1.26 µM	
COc1ccc(CN2C(=O)[C@@H]3C(c4ccc(F)cc4)=NO[C@@H]3C2=O)cc1		inactive: 12.7%
